Reference: PubChem BioAssay AID1259286 (Sanger Institute, 2017)

Assay: 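Kinases whose loss adds to targeted drug killing of colorectal cancer cells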 (primary screen)
Cells: NCI-H630 human colorectal cancer cells
Reagent: siRNA pool against human genes
Conditions: anchor drugs BYL719 at 1 µM, cetuximab at 5 µg/ml or trametinib at 10 nM, or DMSO vehicle alone; exposure time not given
Measurement: 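Viability relative to non-targeting pool wells, averaged over replicates, with robust z-score for knock-down alone and a synergy score for each anchor drug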
Scale: viability z-score, knock-down alone: higher = more viable cells, weaker knock-down effect
Active means: 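a gene is called essential when its knock-down-alone viability robust z-score is below -3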
Meaning of the calls: active = essential when knocked down alone; inactive = not essential alone
In all, the deposit lists 794 reagents; shown is an unselected part. Over the whole deposit, 17 (2.1%) are marked active. 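Calls use knock-down alone only; synergy above 0.15 marked separately; viability seems capped at control level; exposure time not given.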 Not all columns of the deposit are shown. Reagent sequences are not shown. Not given: the amount of reagent, the time to read-out.

The first 2 entries as a preview:
gene symbol	viability z-score, knock-down alone	outcome
CDKL1	0.464	inactive
PTGS1	0.464	inactive

Results, from the start:
gene symbol	viability z-score, knock-down alone	outcome
CDKL1	0.464	inactive
PTGS1	0.464	inactive
RSKR	0.464	inactive
PPP2R1A	0.464	inactive
SNRK	-0.0666	inactive
CEP290	0.464	inactive
DLG3	0.464	inactive
PKN2	0.464	inactive
ATR	0.464	inactive
COMMD3	0.464	inactive
TSSK2	-0.314	inactive
CDK4	0.464	inactive
GUCY2C	-0.00648	inactive
NME1	0.464	inactive
MAPK14	0.353	inactive
KCNH2	0.419	inactive
PSKH2	0.0989	inactive
AAK1	0.464	inactive
GRK7	0.456	inactive
CSNK2A1	0.464	inactive
TP53	0.091	inactive
CHEK2	0.464	inactive
MAPK10	0.464	inactive
ULK2	0.464	inactive
MAGI3	0.464	inactive
CAMKK1	0.431	inactive
EFNB3	0.464	inactive
MAPKAPK5	0.464	inactive
SPEG	0.0742	inactive
PDK2	0.464	inactive
STK36	0.464	inactive
ERBB3	-0.462	inactive
EPHA1	0.464	inactive
CDK8	0.464	inactive
PRKCH	-0.682	inactive
WNK1	0.464	inactive
BMPR1B	0.464	inactive
LRRK1	0.464	inactive
ADK	0.464	inactive
IRAK4	0.464	inactive
CHKB	0.464	inactive
MAP4K4	-3.91	active
PRKG1	-0.208	inactive
RNASEL	0.291	inactive
AK5	0.464	inactive
SRC	-0.0696	inactive
PIK3R2	0.464	inactive
AMER1	0.464	inactive
RIPK3	-1.18	inactive
PIP5K1B	0.164	inactive
